Assay results taken from patent US6416987B1, “Mutants of thymidylate synthase and uses thereof” (Sloan Kettering Institute for Cancer Research, priority 1997, dated 2002).
A number of entries come with more than one value. The list is limited to them. The source may hold further records. The values listed for one entry differ for a reason that is not stated; dose, time, organism, isomer or construct need not be as stated for each record.

Test system: TS-negative FSthy21 cells transfected with I108A mutant human TS cDNA
Test: Growth inhibition assay (alamar Blue), I108A transfectants
Conditions: I108A transfectants vs wild-type transfectants

**Q.** Cc1ccc2nc(N)[nH]c(=O)c2c1Sc1ccncc1 was tested. Which “resistance, IC50 values greater than wild-type transfectants” value did it give?
**A.** Its value is ≥ 76 fold and at least 78 fold and ≥ 78 fold.
